Results of single-concentration screens

The chains behind the UniProt entries cited, without tags or fusion partners.
UniProt P9WPC5, whole entry: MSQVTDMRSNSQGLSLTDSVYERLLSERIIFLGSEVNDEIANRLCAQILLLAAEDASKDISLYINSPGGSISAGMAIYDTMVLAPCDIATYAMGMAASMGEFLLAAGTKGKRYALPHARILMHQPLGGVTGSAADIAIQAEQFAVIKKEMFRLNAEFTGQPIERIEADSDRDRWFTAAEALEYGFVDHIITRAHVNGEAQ
UniProt P9WPC3, whole entry partner: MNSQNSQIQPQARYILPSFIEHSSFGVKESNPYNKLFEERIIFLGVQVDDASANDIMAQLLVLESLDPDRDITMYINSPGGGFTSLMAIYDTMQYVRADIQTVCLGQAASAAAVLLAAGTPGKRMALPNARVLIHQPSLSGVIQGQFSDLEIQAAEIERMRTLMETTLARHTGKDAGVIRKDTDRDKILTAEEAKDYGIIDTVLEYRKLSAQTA

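Protease assay of ClpP1P2, read by the AMC dye that it sets free. Target: ClpP1P2, Mycobacterium tuberculosis (UniProt P9WPC5 and UniProt P9WPC3). Compounds at 50 µM. Higher reads as stronger inhibition, judged from the few compounds that gave an IC50. Most other retested compounds had strongly negative values. Size under these conditions: about 69,000 compounds, about 10 of them at 50% or above in at least one test.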

The filed quantity is “Percent Effect” (%). The record does not define 0% and 100%; most values in the screen are far below 50% and negative numbers occur (in some assays of this library far below -100). Compounds were drawn at random from those tested, without regard to their results.

SMILES	percent effect
O=C(NCCc1ccncc1)c1cccc(S(=O)(=O)NC2CCOC2)c1 (configuration not stated)	3.573%
COc1ccc(CCN)cc1-c1ccc(O)cc1	3.176%
COc1ccc(F)c(F)c1CN1CC(=O)N(c2ccccc2C)CC1C (configuration not stated)	1.237%
c1cncc(CN2CCc3ncnc(C4CC4)c3CC2)c1	0.8115%
O=c1[nH]nc2c(S(=O)(=O)N3CCOCC3)cccn12	-4.173%
CCc1nc(C2CCCN2Cc2nnc(Cc3ccccc3)o2)no1 (configuration not stated)	3.107%
c1ccc(-n2nnnc2CN2CCCC(Cn3cncn3)C2)cc1 (configuration not stated)	3.243%
Cc1cc(NC(=O)CN2CCCCC2Cn2nc(C)nc2C)on1 (configuration not stated)	-8.389%
COC(=O)Cn1c(C)cc(=O)n2nc(-c3cccs3)nc12	1.526%
Cc1noc(C)c1CNCC1COCc2c(-c3ccoc3)nnn2C1 (configuration not stated)	3.438%
c1cnc(N2C[C@H]3CN(CC4CCOC4)C[C@H]3C2)nc1 (some centres not stated)	8.269%
Cn1cc(-c2nc3c(cc2C(=O)O)CCN(C(=O)C2CC2)CC3)cn1	-4.056%
CC(C)CN1CCC2(CC1)CN(C(=O)C(C)C)C2	-13.31%
Cc1ccc(C(=O)N2CCO[C@H]3[C@H](OCC4CCOCC4)CC[C@@H]32)o1	0.6709%
CC(C)(C)C(CCO)NC(=O)Nc1ccncc1 (configuration not stated)	16.5%
CCC1=N[C@@]2(CC[C@@H]3CN(C(=O)Nc4ccc(F)cc4)C[C@@H]32)C(=O)N1	1.373%
COc1ccccc1C1(CNc2snc(Cl)c2C#N)CCCC1	5.985%
CCCc1nnc(NC(C)c2ccc3c(c2)OCCO3)o1 (configuration not stated)	-2.755%
O=C1CCC2(CCCN(C(=O)C3CCCC3)C2)CN1CCc1c[nH]cn1 (configuration not stated)	-4.672%
O=C(O)c1cc2c(nc1O)CC(c1cccs1)CC2=O (configuration not stated)	10.64%
Cc1ccc(C(CNCC2CC2)N2CCOCC2)s1 (configuration not stated)	9.001%
Cc1c(F)cc(C(=O)NCC(F)(F)F)cc1NCC(=O)N(C)C	-6.582%
COCCCN1C(=O)CC[C@H]2CN(Cc3ncc[nH]3)CC[C@H]21	16.46%
CNc1nc(CN2C[C@@H](NC(C)=O)[C@H](c3ccc(C)o3)C2)cs1	6.606%
CCN(CC)C1CCN(C(=O)c2cc(CC(C)C)nn2CC)C1 (configuration not stated)	-0.6954%
CC1CCN(C(=O)CSCCN2CCOCC2)CC1	-2.313%
O=C(Cc1ccccn1)N1CCc2c(O)nc(-c3cnccn3)nc2C1	-4.102%
Cc1cc(CN2CCC(CNS(=O)(=O)c3ccc(C)s3)CC2)c(C)o1	0.3301%
Cc1ccsc1C(=O)N1CCC2(CC(N(C)c3ccncn3)C2)C1 (configuration not stated)	-3.959%
CCCNC(=O)c1cnc(N(C)C)nc1COC	-2.438%
Cc1cc(CN2CCCCC2Cn2cncn2)no1 (configuration not stated)	-28.07%
Cn1cc(CN2CC[C@H]3OCC[C@@H](C(=O)Nc4cnccn4)[C@@H]3C2)cn1	-15.59%
Cc1cccc(-c2cc(-c3c(C)nn(CCO)c3C)c(C#N)c(N)n2)c1	-128.6%
CN1CCN(C(=O)NCCNc2ncccn2)Cc2ccccc21	-0.2829%
CCOC(=O)c1sc2ccsc2c1CNC(=O)COC	-13.84%
Cn1cnc2c1C(COCC1CC1)CN(C(=O)Cc1ccsc1)C2 (configuration not stated)	-8.262%
CC(=O)N1CCC(C(=O)NCCN2CCCC(C)C2)CC1 (configuration not stated)	1.192%
O=C(c1ccccc1OCC1CC1)N1CCCC1Cn1cccn1 (configuration not stated)	-11.34%
CN(C)c1cc(CC(NC(=O)C2CC2)c2ccccc2)nc(C2CC2)n1 (configuration not stated)	-14.59%
CC(COc1ccccc1)NCc1nncn1C1CCCCC1 (configuration not stated)	4.511%
Cn1nc2c(cc1=O)CN(c1ncnc3ccsc13)CC2	1.879%
Cc1ccc(S(=O)(=O)NC(=O)c2cccc3c2OCCO3)c(C)c1	-13.85%
Cc1ncsc1CCN(C)C(=O)c1ccc(Cn2cnnn2)cc1	-9.102%
Cc1ccc(CNCCCNS(C)(=O)=O)c(Br)c1	-0.7019%
COc1ccccc1-c1cccc(C2CCCN(C3CCOCC3)C2)n1 (configuration not stated)	8.769%
COc1c(Br)cccc1CCNC(=O)c1csnn1	-0.2818%
Cc1cccc(O[C@H]2COCCN(C3CCOCC3)C2)n1	4.74%
CCCNC(=O)c1cc2c(nc1O)CCC(C)C2 (configuration not stated)	0.02023%
CC[C@@]1(O)CCN(C(=O)c2ccc(SC)cc2)C[C@H]1O	-4.282%
COc1cccc(CC(C)NC(=O)NC(C)C)c1 (configuration not stated)	-12.47%
COc1ccc(CNC(=O)NCc2cc(C)oc2C)cc1	4.816%
O=C(NC[C@H]1CCCC[C@H]1O)c1cccc2[nH]c(-c3ccco3)nc12	-2.82%
COCCN1CCc2cc(C(=O)N(C)C)c(NCC3CC3)nc2CC1	-35.45%
Cc1ccc2c(c1)N(C(=O)C1CCCOC1)CCC2 (configuration not stated)	-5.412%
O=C1[C@H]2CN(Cc3cccs3)C[C@H]2CN1c1cncnc1	2.043%
Fc1cccc(N2CCCC3(CN(Cc4cccnc4)CCO3)C2)c1 (configuration not stated)	-3.794%
CC1CCN(CCNC(=O)c2ccn(-c3ccc(F)cc3)n2)CC1	-17.1%
COc1ccc(NC(=O)N2CCCC2c2ccncc2)cn1 (configuration not stated)	1.653%
O=C(c1ccco1)N1CC[C@@H](N2CCOCC2)[C@@H]1Cc1ccncc1	14.67%
COc1ccc(CNC(=O)N2CCOCC2C2CC2)cc1C (configuration not stated)	2.168%
Cc1noc(-c2cccnc2N(C)Cc2ccc([S+](C)[O-])cc2)n1 (configuration not stated)	-2.362%
Cc1ccsc1CNC(=O)Cc1c(C)nc2c(c1C)c(=O)[nH]n2C	-7.311%
Cc1nn(C)c(C)c1-c1ccnc(N(C)Cc2noc(C(C)C)n2)n1	4.875%
OCCOCc1n[nH]c2c1CN(Cc1ccco1)C2	0.007205%
CN(C(=O)c1ccc(S(=O)(=O)NC(C)(C)C)cc1)C1(C#N)CCC1	-8.882%
Cc1cc(-c2cnc(N3CCSCC3)nc2-c2ccc(C)s2)on1	-7.363%

For reference, 5 entries once more:

| SMILES | percent effect |
|---|---|
| `Cc1ccc(C(=O)N2CCO[C@H]3[C@H](OCC4CCOCC4)CC[C@@H]32)o1` | 0.6709% |
| `Cc1cc(-c2cnc(N3CCSCC3)nc2-c2ccc(C)s2)on1` | -7.363% |
| `CCc1nc(C2CCCN2Cc2nnc(Cc3ccccc3)o2)no1` (configuration not stated) | 3.107% |
| `O=C(NCCc1ccncc1)c1cccc(S(=O)(=O)NC2CCOC2)c1` (configuration not stated) | 3.573% |
| `COc1ccc(CNC(=O)NCc2cc(C)oc2C)cc1` | 4.816% |

The values are deposited in ChEMBL (CHEMBL3988442, “University of Dundee, Small-Polar-MMV Screening Library” (2021)).